Results reported in US12269797B2, “Bifunctional linker for bisconjugation, method of synthesis, and method of use” (priority 2020, dated 2025).

Experiments:
RFP = assay: Mass peptide fingerprint site analysis of residues modified by the linker; conditions: 1:1 Ib:RFP reaction, trypsin digestion, MS/MS
[1] = RFP retention on copper-painted substrate after washing (fluorescent microscopy, ImageJ particle count); conditions: RFP retained on copper-painted stainless steel after washing

Molecule: C#CCOC(=O)c1ccc(C=O)c(C=O)c1 [Ib, Prop-2-yn-1-yl 3,4-diformylbenzoate]
- arginine modifications (RFP): No arginine modifications were detected
- lysines unambiguously modified (of the 21 lysines of RFP) (RFP; Mascot site analysis probability >89%): 12

B1: RFP: Red fluorescent protein expressed from the pBAD-DsRED plasmid in E. coli BL21(DE3), no linker, control (protein, UniProt Q9U6Y8 1-225, looked up)
Red fluorescent protein …: MRSSKNVIKEFMRFKVRMEGTVNGHEFEIEGEGEGRPYEGHNTVKLKVTKGGPLPFAWDILSPQFQYGSKVYVKHPADIPDYKKLSFPEGFKWERVMNFEDGGVVTVTQDSSLQDGCFIYKVKFIGVNFPSDGPVMQKKTMGWEASTERLYPRDGVLKGEIHKALKLKDGGHYLVEFKSIYMAKKPVQLPGYYYVDSKLDITSHNEDYTIVEQYERTEGRHHLFL
- Retained (%) [1]: 2%
